Measurements from patent US11192849B2, “Compounds, compositions, and methods for modulating ferroptosis and treating excitotoxic disorders” (THE TRUSTEES OF COLUMBIA UNIVERSITY IN THE CITY OF NEW YORK, priority 2013, dated 2021).

System: mice, IRI of the cremaster muscle
Experiment: In vivo microscopy on the postischemic cremaster muscle
Set-up: species or system mouse
Experimental: The surgical preparation of the cremaster muscle was performed as originally described by Baez with minor modifications (Traykova-Brauch et al., 2008; Mulay et al., 2013). Mice were anesthetized using a ketamine/xylazine mixture (100 mg/kg ketamine and 10 mg/kg xylazine), administrated by i.p. injection. The left femoral artery was cannulated in a retrograde manner for administration of microspheres and drugs. The right cremaster muscle was exposed through a ventral incision of the scrotum. The muscle was opened ventrally in a relatively avascular zone, using careful electrocautery to stop any bleeding, and spread over the transparent pedestal of a custom-made microscopic stage. Epididymis and testicle were detached from the cremaster muscle and placed into the abdominal cavity. Throughout the procedure as well as after surgical preparation during in vivo microscopy, the muscle was superfused with warm-buffered saline.
The setup for in vivo microscopy was centered around equipment for stroboscopic fluorescence epiillumination microscopy. Light from a 75-W xenon source was narrowed to a near monochromatic beam of a wavelength of 700 nm by a galvanometric scanner (Polychrome II; TILL Photonics) and directed onto the specimen via an FITC filter cube equipped with dichroic and emission filters (DCLP 500, LP515; Olympus). Microscopy images were obtained with Olympus water immersion lenses (20×/numerical aperture (N.A.) 0.5 and 10×/N.A. 0.3) and recorded with an analog black-and-white charge-coupled device (CCD) video camera (Cohu 4920; Cohu) and an analog video recorder (AG-7350-E; Panasonic). […] For measurement of centerline blood flow velocity, green fluorescent microspheres (2-μm diameter; Molecular Probes) were injected via the femoral artery catheter, and their passage through the vessels of interest was recorded using the FITC filter cube under appropriate stroboscopic illumination (exposure, 1 ms; cycle time, 10 ms; length of the electromagnetic wave, 488 nm), integrating video images for sufficient time (>80 ms) to allow for the recording of several images of the same bead on one frame. […]
For off-line analysis of parameters describing the sequential steps of leukocyte extravasation, Cap-Image image analysis software (Dr. Zeintl Biomedical Engineering) was used. Rolling leukocytes were defined as those moving slower than the associated blood flow and were quantified as described previously (Mulay et al., 2013). Firmly adherent cells were determined as those resting in the associated blood flow for more than 30 s and related to the luminal surface per 100-μm vessel length. Transmigrated cells were counted in regions of interest (ROI), covering 75 μm on both sides of a vessel over a 100-μm vessel length. […]

[1] = ferrostatin-1 2 mg/kg i.p. 30 min before

How did the “Shear rate” value [1] turn out when CCOC(=O)c1ccc(NC2CCCCC2)c(N)c1 [SRS8-28 (Fer-1), ethyl 3-amino-4-(cyclohexylamino)benzoate] was run?
Its value is 1272.0 ± 167.3 s⁻¹.

What about the “Vmean (mm^−1 s^−1)” value [1] of the same molecule?
The value was 0.8 ± 0.2 mm^−1 s^−1.

And the “Inner diameter (μm)” value (ferrostatin-1 2 mg/kg i.p. 30 min before, postcapillary venules)?
The value was 25.9 ± 1.6 μm.

What about the “SLC (n × 10^−8/μl)” value (systemic leukocyte counts, ferrostatin-1 2 mg/kg i.p.) of the same molecule?
The value was 1.6 ± 1.5 n × 10^−8/μl.
